Measured values published in article PMC7822942.
These are yes or no findings as the source states them, for the method shown. Binding seen in cells or lysates may run through a third protein. Binding can be weak; no strength is given.

What was measured:
Assay in all cases: co-IP; synaptosomal fractions of adult brains of gephyrin floxed mice injected with the indicated AAVs; immunoprecipitated with an anti-gephyrin antibody, mouse IgG as negative control; immunoblot
[1] = molecular target: EGFP-fused gephyrin G375D (rat), expressed from AAV in mouse dentate gyrus (rat)
[2] = molecular target: EGFP-fused gephyrin A91T (rat), expressed from AAV in mouse dentate gyrus (rat)
[3] = molecular target: EGFP-fused gephyrin WT (rat), expressed from AAV in mouse dentate gyrus (rat)

Measured: binding

B1: IQSEC3 (protein, UniProt Q3TES0 1-1195)
chain: MESLLENPVRAVLYLKELTAIVQNQQSLIHTQRQRIDELERRLDELSAENRSLWEHQQLLQAQPPPGLVPPPPSAPLPAPAVTAPAAAAAQEPLQDHGQLIPASPEPPLQHHGQLLAQPQPAPSSRVQTPQSPHQHPVAPGAIADKEKERPSSCCAAAGALLQHASPAALGKGVLSRRPENETVLHQFCCPAADTEQKPACSDLASQSDGSCAQAGGGMEDSVVAAVAAGRPSAHAPKAQAPELQQEEERPGAVGSPRAGPLRAASPGRQQPALATALCSHTPAASEYELSLDLKNKQIEMLEHKYGGHLVSRRAACTIQTAFRQYQLSKNFEKIRNSLLESRLPRRISLRKVRAPTAESLVAEKALLEGCGLLGLPLGRSPSLPPTFAGSLTELEDSFTEQVQSLAKSIDDALSTWSLKTMCSLQESGAYQLHQALHPSAGQPGLETEAAAREPESGPGSGDEAGGLPQGHSGTLMMAFRDVTVQIANQNISVSSSTALSVANCLGAQTAQATAEPAAAQAEQEDTADQEVSEVPASEQMDPPSEDSEAAESRAQSAQEPAVAQAVVEEAVATEAEEEEEGAKQAGKGAEAEGGDNSEQLSSSSASTKSAKSSSEASAAASKEALQAVILSLPRYHCENPASCRSPTLSTDTLRKRLYRIGLNLFNINPDKGIQFLISRGFIPDTPIGVAHFLLQRKGLSRQMIGEFLGNSKKQFNRDVLDCVVDEMDFSNMELDEALRKFQAHIRVQGEAQKVERLIEAFSQRYCMCNPEVVQQFHNPDTIFILAFAIILLNTDMYSPNIKPDRKMMLEDFIRNLRGVDDGADIPRELVVGIYERIQQKELKSNEDHVTYVTKVEKSIVGMKTVLSMPHRRLVCCSRLFEVTDVNKLQKQAAHQREVFLFNDLLVILKLCPKKKSSFTYTFCKAVGLLGMRFHLFENEYYSHGITLATPLSGSEKKQVLHFCALGSDEMQKFVEDLKESIAEVTELEQIRIEWELEKQQGTKTLSVRSAGAQGDPQSKQGSPTAKREAMAGEKAAESSGEVSIHNRLQTSQHSPKLGVERGAPAPSPPTSPPPLPPDPQPSPLREQPPPLPLPPPTPPGTLVQCQQIVKVIVLDKPCLARMEPLLSQALSCYASSSSDSCGSTPLRGPGSPVKVIHQPPLPPPPPPYNHPHQFCPPGSMLLRRRYSSGSRSLV
binds: all assays above

B2: collybistin (protein, UniProt Q3UTH8 1-516)
chain: MYDLITGDSIVSAEAVWDHVTMANRELAFKAGDVIKVLDASNKDWWWGQIDDEEGWFPASFVRLWVNQEDGVEEGPSDVQNGHLDPNSDCLCLGRPLQNRDQMRANVINEIMSTERHYIKHLKDICEGYLKQCRKRRDMFSDEQLKVIFGNIEDIYRFQMGFVRDLEKQYNNDDPHLSEIGPCFLEHQDGFWIYSEYCNNHLDACMELSKLMKDSRYQHFFEACRLLQQMIDIAIDGFLLTPVQKICKYPLQLAELLKYTAQDHSDYRYVAAALAVMRNVTQQINERKRRLENIDKIAQWQASVLDWEGEDILDRSSELIYTGEMAWIYQPYGRNQQRVFFLFDHQMVLCKKDLIRRDILYYKGRIDMDKYEVIDIEDGRDDDFNVSMKNAFKLHNKETEEVHLFFAKKLEEKIRWLRAFREERKMVQEDEKIGFEISENQKRQAAMTVRKASKQKGVNSARSVPPSYPPPQDPLNQGQYLVPDGIAQSQVFEFTEPKRSQSPFWQNFSRLTPFKK
binds: all assays above
